Here are results for four sequences from publication PMC10817852, “Vascular injury activates the ELK1/SND1/SRF pathway to promote vascular smooth muscle cell proliferative phenotype and neointimal hyperplasia”.

Holding throughout (test): EMSA
(In general: In EMSA bound probe runs differently from free probe, usually more slowly.)

One data set deals with T1, SND1 (1-660) (UniProt Q78PY7).
T1 sequence (looked up): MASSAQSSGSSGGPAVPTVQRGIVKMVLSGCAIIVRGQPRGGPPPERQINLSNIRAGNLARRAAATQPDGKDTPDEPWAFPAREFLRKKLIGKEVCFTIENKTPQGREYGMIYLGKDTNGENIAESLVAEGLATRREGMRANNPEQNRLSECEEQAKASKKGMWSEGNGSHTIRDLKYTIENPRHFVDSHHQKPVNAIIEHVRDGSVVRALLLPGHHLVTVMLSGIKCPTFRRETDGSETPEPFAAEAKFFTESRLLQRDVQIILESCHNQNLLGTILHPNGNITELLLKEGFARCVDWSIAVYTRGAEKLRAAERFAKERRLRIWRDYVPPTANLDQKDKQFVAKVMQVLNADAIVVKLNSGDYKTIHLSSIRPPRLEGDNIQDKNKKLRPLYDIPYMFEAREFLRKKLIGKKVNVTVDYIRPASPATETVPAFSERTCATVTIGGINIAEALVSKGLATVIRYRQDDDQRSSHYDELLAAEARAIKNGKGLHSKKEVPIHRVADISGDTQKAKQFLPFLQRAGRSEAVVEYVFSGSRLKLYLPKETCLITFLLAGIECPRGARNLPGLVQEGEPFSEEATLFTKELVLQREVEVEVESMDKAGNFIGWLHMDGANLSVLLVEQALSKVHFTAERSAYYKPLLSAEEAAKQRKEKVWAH
As to conditions: SND1 alone; Beyotime GS009 chemiluminescent EMSA kit binding buffer (composition, salt and pH not given), 20 fmol biotin probe, 0.1 ug protein, 10 min at room temperature; recombinant protein; residues 1-660; label: biotin.

Another data set deals with T2, SRF (1-266) (UniProt P11831).
T2 sequence (looked up, limits assumed): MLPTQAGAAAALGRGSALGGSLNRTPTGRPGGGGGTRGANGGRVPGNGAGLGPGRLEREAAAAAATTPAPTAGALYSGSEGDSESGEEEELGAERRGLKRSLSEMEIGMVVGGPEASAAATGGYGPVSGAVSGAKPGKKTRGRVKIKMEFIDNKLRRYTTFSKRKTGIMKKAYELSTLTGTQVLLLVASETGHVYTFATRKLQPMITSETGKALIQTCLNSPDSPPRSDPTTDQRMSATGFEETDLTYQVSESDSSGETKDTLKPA
As to conditions: Beyotime GS009 chemiluminescent EMSA kit binding buffer (composition, salt and pH not given), 20 fmol biotin probe, 0.1 ug protein, 10 min at room temperature; recombinant protein; label: biotin.

A further data set relates to ELK1. As to conditions: unlabeled probe (200-fold) diminished binding; Beyotime GS009 chemiluminescent EMSA kit binding buffer (composition, salt and pH not given), 20 fmol biotin probe, 0.1 ug protein, 10 min at room temperature; recombinant protein; label: biotin.

For some of these results: A negative result means that nothing was seen under these conditions. For some of these results: At least one verdict rests on a figure or table, not on a statement of the authors. For some of these results: Where a protein sequence is shown, tags need not be part of it. For some of these results: The exact form of at least one protein or probe is not confirmed.

As to “CCTTAAATGGCCTTAAATGGCCTTAAATGGCCTTAAATGGCCTTAAATGG (double strand) [Rock2 CArG probe]”, the figures for the binding result with SND1 (1-660) and in the data set with SRF (1-266) were “no binding” and “binds”, respectively.
For “CCTATTTAGTCCTATTTAGTCCTATTTAGTCCTATTTAGTCCTATTTAGT (double strand) [Iqgap1 CArG probe]”, the binding result with SND1 (1-660) is given as “no binding”; with SRF (1-266), “binds”.
The matching figures for “CCTATATAGACCTATATAGACCTATATAGACCTATATAGACCTATATAGA (double strand) [Cdk2 CArG probe]”: “no binding” and “binds”.
As to “CCGGAAGTCCGGAAGTCCGGAAGTCCGGAAGTCCGGAAGT (double strand) [Snd1 ELK1-motif probe]”, in the data set on ELK1, the binding result was “binds”.
